According to article PMC8595372 (Nature Communications, 2021):
These are yes or no findings as the source states them, for the method shown. Some entries that bind do so weakly or less than the wild type.

Protein sequences, listed by entry. Tags and fused reporters are not part of them.
UniProt P30281: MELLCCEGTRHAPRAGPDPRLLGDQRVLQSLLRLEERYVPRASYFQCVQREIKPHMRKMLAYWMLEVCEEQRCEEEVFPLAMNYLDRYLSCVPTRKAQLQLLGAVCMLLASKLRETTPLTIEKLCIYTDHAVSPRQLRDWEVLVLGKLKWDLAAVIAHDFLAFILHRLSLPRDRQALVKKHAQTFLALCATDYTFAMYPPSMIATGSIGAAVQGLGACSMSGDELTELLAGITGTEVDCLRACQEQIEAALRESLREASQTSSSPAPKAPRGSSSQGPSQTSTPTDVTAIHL

Molecular target: Full-length human wild-type Cyclin D3 (human) (UniProt P30281)
Assay: co-purification (GST-affinity chromatography, then SEC); His6-Cdk4 and GST-CycD3 co-expressed in Sf9 cells from Cre-fused vectors; complex captured by GST-affinity chromatography, then TEV protease cleavage and SEC

- binding: binds
Substance: Full-length human wild-type Cdk4 (from UniProt P11802-1 1-303) (enzyme)
